Reference: article PMC7951975
No constants are given. Whether binding was seen depends on the method and setting. Binding calls can cover weak binding; strength is not graded here. Sequences can lack the tags named with a protein.

target: T1, GraS (native), fused to the T18 fragment of adenylate cyclase (Staphylococcus aureus) (UniProt Q2G0D9); assay: two-hybrid; bacterial two-hybrid (BACTH) in E. coli DHT1; VraG variants with T25 (pKT25), GraS variants with T18 (pUT18); grown at 30°C; β-galactosidase activity with ONPG, absorbance at 420 nm after 15 min; also streaked on LB plates with IPTG and X-gal; empty plasmids as negative control
T1 sequence: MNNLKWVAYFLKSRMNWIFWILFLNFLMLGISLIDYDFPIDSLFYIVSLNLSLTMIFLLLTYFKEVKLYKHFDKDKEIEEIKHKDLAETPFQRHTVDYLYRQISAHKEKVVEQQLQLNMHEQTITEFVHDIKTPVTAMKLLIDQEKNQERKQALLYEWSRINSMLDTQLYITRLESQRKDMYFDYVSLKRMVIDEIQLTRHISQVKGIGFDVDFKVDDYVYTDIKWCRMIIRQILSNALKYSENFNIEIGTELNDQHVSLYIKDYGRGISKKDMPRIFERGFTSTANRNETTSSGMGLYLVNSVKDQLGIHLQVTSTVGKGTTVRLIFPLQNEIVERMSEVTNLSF

“VraG (native), fused to the T25 fragment of adenylate cyclase (from UniProt Q9KWJ4)” was tested. Which binding did it give?
Its binding is “binds”.

How did the binding turn out when “ΔEL VraG, fused to the T25 fragment of adenylate cyclase (from UniProt Q9KWJ4)” was run?
Its binding is “no binding”.

How did the binding turn out when “VraG K380A, fused to the T25 fragment of adenylate cyclase (from UniProt Q9KWJ4)” was run?
Its binding is “no binding”.

For “VraG K388A, fused to the T25 fragment of adenylate cyclase (from UniProt Q9KWJ4)”, which binding is on record?
Its binding is “binds”.
